Experimental data from paper doi:10.1101/2023.07.24.550302.
These are yes or no findings as the source states them, for the method shown. Some results given as binding are weak or reduced against the parent protein; the word gives no strength. Where a sequence is shown, tags or fusion partners need not be part of it.

Amino acid sequences for entries named in this document (tags omitted).
UniProt Q8TAF3: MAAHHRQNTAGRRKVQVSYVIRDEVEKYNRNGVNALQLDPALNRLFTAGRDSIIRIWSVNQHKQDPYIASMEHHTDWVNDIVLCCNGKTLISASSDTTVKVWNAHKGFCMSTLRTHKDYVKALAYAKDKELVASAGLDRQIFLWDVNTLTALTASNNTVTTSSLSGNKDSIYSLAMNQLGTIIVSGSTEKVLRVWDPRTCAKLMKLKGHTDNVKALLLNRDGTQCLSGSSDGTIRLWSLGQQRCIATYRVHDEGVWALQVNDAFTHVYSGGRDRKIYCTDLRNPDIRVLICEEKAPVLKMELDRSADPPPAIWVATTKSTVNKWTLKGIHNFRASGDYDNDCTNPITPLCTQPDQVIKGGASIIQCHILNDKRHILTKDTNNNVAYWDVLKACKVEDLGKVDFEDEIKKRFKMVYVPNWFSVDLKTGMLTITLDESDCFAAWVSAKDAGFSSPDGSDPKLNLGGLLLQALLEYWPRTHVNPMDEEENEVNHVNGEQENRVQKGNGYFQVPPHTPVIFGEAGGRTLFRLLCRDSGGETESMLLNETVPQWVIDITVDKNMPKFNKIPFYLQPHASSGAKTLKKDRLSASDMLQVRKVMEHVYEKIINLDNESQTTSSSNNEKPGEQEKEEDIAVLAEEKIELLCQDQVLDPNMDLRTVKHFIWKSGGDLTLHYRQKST

Molecular target: T1, USP1 (G670A + G671A, N-terminal his-tag) (human) (UniProt O94782)
T1 sequence: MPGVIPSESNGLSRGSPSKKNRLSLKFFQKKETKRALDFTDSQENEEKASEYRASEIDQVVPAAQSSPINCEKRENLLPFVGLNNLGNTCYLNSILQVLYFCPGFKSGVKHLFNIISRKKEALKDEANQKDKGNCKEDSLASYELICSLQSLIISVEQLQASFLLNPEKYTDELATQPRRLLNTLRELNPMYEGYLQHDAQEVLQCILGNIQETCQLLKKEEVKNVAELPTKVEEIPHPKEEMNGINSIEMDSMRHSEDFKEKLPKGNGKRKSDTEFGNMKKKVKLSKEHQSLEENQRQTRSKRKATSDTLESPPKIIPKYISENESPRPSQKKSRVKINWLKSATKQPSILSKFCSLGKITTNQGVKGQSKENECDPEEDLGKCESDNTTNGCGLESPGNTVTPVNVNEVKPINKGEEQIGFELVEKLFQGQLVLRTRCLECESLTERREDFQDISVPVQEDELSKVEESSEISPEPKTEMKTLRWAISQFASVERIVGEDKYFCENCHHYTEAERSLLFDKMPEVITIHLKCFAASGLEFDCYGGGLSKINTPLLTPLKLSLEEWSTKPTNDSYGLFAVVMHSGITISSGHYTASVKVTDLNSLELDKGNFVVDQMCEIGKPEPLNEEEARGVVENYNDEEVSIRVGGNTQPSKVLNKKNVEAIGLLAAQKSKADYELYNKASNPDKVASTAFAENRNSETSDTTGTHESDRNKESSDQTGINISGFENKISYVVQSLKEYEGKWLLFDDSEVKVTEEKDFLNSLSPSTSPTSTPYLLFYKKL
Experiment: co-purification after co-expression

binding: binds
Substance: UAF1 (N-terminal strep-tag) (from UniProt Q8TAF3 1-677)
